This assay concerns the target Flag-Avitag-RBBP4 (in vivo biotinylated RBBP4) (mouse) (UniProt Q60972). Put plainly: co-IP; Biotin immunoprecipitation: lysate (50 mM Tris-HCl pH 7.9, 150 mM NaCl, 1% NP-40) of Flag-Avitag-Rbbp4-overexpressing 46C mESCs, 1 mg protein, M280 Streptavidin Dynabeads overnight at 4°C, four washes in lysis buffer, western blots; Flag-Avitag cells as control.

Chains of the proteins cited; added tags and fusions are not shown.
UniProt Q60972: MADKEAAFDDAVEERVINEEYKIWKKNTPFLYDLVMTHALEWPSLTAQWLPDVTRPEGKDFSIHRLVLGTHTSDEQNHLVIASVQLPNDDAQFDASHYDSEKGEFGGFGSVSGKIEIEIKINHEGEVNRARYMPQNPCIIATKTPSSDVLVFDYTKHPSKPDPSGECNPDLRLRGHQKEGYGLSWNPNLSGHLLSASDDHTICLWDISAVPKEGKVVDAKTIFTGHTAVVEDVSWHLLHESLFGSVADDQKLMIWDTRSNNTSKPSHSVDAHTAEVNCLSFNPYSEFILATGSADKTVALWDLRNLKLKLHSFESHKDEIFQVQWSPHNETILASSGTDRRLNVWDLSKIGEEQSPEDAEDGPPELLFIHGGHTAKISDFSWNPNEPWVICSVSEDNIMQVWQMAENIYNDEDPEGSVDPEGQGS
UniProt Q6PDQ2: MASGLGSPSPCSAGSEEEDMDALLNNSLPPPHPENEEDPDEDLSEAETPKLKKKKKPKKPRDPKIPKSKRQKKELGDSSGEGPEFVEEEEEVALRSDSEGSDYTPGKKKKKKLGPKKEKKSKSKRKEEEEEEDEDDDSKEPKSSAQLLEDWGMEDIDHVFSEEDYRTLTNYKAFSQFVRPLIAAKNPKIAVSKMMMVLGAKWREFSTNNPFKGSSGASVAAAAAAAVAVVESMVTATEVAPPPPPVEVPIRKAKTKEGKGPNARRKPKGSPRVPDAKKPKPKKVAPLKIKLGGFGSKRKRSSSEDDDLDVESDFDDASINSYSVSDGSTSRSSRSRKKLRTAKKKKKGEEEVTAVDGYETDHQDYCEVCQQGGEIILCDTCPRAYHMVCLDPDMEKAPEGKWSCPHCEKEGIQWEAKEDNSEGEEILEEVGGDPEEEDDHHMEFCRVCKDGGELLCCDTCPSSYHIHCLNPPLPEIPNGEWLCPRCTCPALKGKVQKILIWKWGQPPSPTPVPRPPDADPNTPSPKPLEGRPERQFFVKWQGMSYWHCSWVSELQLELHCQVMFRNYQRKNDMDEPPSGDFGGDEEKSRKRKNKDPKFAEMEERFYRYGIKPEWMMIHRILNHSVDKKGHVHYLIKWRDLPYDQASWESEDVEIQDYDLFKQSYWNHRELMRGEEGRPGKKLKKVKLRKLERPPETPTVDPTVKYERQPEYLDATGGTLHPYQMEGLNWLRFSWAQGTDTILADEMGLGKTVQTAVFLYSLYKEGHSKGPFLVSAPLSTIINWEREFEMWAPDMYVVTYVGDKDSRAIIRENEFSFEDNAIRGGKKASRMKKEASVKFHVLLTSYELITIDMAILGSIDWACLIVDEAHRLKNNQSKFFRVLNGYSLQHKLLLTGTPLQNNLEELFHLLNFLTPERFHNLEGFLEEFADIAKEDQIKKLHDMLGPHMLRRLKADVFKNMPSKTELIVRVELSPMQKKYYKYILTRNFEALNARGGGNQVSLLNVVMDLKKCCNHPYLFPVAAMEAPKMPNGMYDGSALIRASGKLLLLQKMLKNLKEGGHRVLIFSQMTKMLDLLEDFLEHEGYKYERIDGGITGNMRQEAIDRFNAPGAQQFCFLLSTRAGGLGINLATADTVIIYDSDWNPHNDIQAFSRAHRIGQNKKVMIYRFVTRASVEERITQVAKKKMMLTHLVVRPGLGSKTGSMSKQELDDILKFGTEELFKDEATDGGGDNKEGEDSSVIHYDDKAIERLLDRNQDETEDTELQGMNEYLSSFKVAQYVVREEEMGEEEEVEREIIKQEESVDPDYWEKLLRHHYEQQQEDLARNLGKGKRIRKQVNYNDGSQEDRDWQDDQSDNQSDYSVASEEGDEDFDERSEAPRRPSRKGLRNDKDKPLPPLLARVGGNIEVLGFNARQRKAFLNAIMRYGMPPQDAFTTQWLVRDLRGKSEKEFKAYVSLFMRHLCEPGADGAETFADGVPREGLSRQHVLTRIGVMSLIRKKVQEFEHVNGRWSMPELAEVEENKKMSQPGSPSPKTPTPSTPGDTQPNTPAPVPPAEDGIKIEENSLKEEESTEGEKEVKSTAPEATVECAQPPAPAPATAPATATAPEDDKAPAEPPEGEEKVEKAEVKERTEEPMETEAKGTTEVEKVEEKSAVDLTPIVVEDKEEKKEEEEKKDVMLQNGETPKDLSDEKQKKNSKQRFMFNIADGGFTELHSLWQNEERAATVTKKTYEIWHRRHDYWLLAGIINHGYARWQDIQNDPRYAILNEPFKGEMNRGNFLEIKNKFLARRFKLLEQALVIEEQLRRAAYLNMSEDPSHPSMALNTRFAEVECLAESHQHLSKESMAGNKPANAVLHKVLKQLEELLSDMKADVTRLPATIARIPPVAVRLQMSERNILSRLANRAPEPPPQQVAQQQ
UniProt Q9Z148: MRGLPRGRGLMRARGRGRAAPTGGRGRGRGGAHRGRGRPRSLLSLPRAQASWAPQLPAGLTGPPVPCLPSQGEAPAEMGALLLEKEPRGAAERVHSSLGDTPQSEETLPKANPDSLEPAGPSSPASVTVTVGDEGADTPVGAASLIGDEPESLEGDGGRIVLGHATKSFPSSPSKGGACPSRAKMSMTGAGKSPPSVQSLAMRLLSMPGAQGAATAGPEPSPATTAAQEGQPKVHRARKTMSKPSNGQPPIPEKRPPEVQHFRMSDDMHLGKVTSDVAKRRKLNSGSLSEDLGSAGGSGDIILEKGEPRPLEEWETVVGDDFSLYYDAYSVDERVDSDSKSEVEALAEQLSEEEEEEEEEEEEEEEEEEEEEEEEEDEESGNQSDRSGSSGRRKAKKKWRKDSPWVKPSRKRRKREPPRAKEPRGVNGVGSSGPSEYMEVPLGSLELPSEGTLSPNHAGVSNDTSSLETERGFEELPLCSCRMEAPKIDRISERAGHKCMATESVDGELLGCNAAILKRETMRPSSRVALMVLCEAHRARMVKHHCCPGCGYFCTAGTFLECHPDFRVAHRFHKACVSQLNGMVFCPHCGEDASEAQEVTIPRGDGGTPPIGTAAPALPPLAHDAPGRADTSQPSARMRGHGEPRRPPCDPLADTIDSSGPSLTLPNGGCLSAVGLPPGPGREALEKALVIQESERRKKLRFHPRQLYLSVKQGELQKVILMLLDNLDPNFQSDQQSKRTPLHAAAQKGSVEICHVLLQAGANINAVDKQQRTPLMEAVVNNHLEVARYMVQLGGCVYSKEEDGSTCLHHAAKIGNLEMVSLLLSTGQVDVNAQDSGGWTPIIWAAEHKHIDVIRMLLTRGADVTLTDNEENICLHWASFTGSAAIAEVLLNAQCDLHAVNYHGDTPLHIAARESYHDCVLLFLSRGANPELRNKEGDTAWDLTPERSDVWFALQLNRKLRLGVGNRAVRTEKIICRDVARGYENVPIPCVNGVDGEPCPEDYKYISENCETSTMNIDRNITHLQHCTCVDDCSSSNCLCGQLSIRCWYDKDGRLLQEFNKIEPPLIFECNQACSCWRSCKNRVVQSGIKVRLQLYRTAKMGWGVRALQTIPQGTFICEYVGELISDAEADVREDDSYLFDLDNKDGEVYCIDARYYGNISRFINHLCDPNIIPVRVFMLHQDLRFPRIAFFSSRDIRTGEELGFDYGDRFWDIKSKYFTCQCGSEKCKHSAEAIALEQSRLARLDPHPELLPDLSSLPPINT

These are yes or no findings as the source states them, for the method shown. Binding seen in cells or lysates may run through a third protein. Some binding calls cover weakened binding; strength is not graded here.

These results are taken from paper PMC10287929.

On to CHD4 (from UniProt Q6PDQ2 1-1915), for which the binding result is “binds”.

For G9a (from UniProt Q9Z148 1-1263), the binding entry is “binds”.
